Experimental data taken from US20240325353A1, “COMPOUND FOR TREATMENT OF COGNITIVE DISORDERS” (Syndesi Therapeutics SA, priority 2021, published 2024).
The source gives many values for each of these; only a part stands here.

System: brain activity (BOLD signal)
Test: pharmaco-MRI (BOLD) neuroimaging study in conscious rats
Assay type: in vivo, rat
Conditions: 20-30 min post injection
Experimental: Test Substance, Reference Substance(s), and Vehicle: the compound of example 1 test substance for dose-dependent change in BOLD signal was provided by Syndesi along with the formula for the vehicle.
Subjects: Forty-eight male Sprague Dawley rats weighing ca 275-300 g were obtained from Charles River Laboratories (Wilmington, MA, USA). Rat were maintained on a 12:12 hour light:dark cycle with a lights on at 0700 hours and allowed access to food and water ad libitum. All rats were acquired and cared for in accordance with the guidelines published in the Guide for the Care and Use of Laboratory Animals (National Institutes of Health Publications No. 85-23, Revised 1985) and adhered to the National Institutes of Health and the American Association for Laboratory Animal Science guidelines.
Acclimation: To reduce the stress associated with head restraint, rats were acclimated to the restraining system (head holder and body tube) one week prior to their actual imaging session. The design of the restraining system (Animal Imaging Research, Holden MA, USA) included a padded head support obviating the need for ear bars helping to reduce animal discomfort while minimizing motion artifact. These acclimation sessions were run each day for 4-5 consecutive days. Rats were briefly anesthetized with 2-3% isoflurane while being secured into the head holder. The forepaws were secured with tape. When fully conscious, the imaging system is placed into a black opaque box “mock scanner” for 30 min with a tape-recording of the MRI pulse sequence to simulate the bore of the magnet and the imaging protocol. A significant decline in respiration, heart rate, motor movements, and plasma corticosterone has been measured when the first and last acclimation periods are compared (King et al., 2005). The reduction in autonomic and somatic measures of arousal and stress improve the signal resolution and quality of the images.
Image Acquisition: Animals were scanned at 300 MHz using a quadrature transmit/receive volume coil built into the rat head holder and restraining system for awake animal imaging (Animal Imaging Research, Holden, MA, USA). The design of the coil provided complete coverage of the brain from olfactory bulbs to brain stem with excellent B1 field homogeneity. Experiments were conducted using a Bruker Biospec 7.0 T/20-cm USR horizontal magnet (Bruker, Billerica, MA, USA) and a 20-G/cm magnetic field gradient insert (ID=12 cm) capable of a 120-μs rise time. At the beginning of each imaging session, a high-resolution anatomical data set was collected using the RARE pulse sequence [22 slice; 1.0 mm; field of view (FOV) 3.0 cm; matrix size 256×256; repetition time (TR) 2.5 s; echo time (TE) 12 ms; NEX 2; 3 min acquisition time]. Functional images were acquired using a multi-slice half-Fourier acquisition single-shot turbo spin echo (HASTE) pulse sequence. Bruker Paravision automatically finds the basic frequency, shims, power requirements for 90° and 180° pulses and sets the receiver gain. A single scanning session acquired 22 slices, 1.0 mm thick, every 6.0 s (TR), using an effective TE of 48 ms, FOV 3.0 cm, matrix size 96×96, NEX 1, and repeated 450 times for a total scanning time of 45 min. The in-plane pixel resolution was 312 μm2.
Data Processing: Data are coregistered to a mean functional image using SPM8's coregistrational code with the following parameters: Quality: 0.97, Smoothing: 0.35 mm, Separation: 0.5 mm. Gaussian smoothing was performed with a FWHM of 0.8 mm. Images were aligned and registered to the 3D rat brain atlas, segmented and labeled with 171 discrete anatomical regions. The alignment process was facilitated by an interactive graphic user interface. The registration process involved translation, rotation and scaling independently and in all three dimensions. Matrices that transformed each subject's anatomy were used to embed each slice within the atlas. […]

Structure (SMILES): O=C1C[C@H](c2cc(F)c(F)c(F)c2)CN1Cn1ncnc1Cl [compound of example 1, (4R)-1-[(5-chloro-1H-1,2,4-triazol-1-yl)methyl]-4-(3,4,5-trifluorophenyl)pyrrolidin-2-one]
- median number of positive voxels (positive BOLD volume of activation) (parvicellular reticular n., 1.0 mg/kg i.p.): 4
- median number of positive voxels (positive BOLD volume of activation) (periolivary nucleus, 0.1 mg/kg i.p.): 3
- median number of positive voxels (positive BOLD volume of activation) (periolivary nucleus, 0.3 mg/kg i.p.): 12
- median number of positive voxels (positive BOLD volume of activation) (periolivary nucleus, 1.0 mg/kg i.p.): 0
- median number of positive voxels (positive BOLD volume of activation) (posterior hypothalamic area, 0.1 mg/kg i.p.): 19
- median number of positive voxels (positive BOLD volume of activation) (posterior hypothalamic area, 0.3 mg/kg i.p.): 15
- median number of positive voxels (positive BOLD volume of activation) (posterior hypothalamic area, 1.0 mg/kg i.p.): 0
- median number of positive voxels (positive BOLD volume of activation) (posterior thalamic nucleus, 0.1 mg/kg i.p.): 11
- median number of positive voxels (positive BOLD volume of activation) (posterior thalamic nucleus, 0.3 mg/kg i.p.): 0
- median number of positive voxels (positive BOLD volume of activation) (posterior thalamic nucleus, 1.0 mg/kg i.p.): 0
- median number of positive voxels (positive BOLD volume of activation) (premammillary nucleus, 0.1 mg/kg i.p.): 1
- median number of positive voxels (positive BOLD volume of activation) (premammillary nucleus, 0.3 mg/kg i.p.): 3
- median number of positive voxels (positive BOLD volume of activation) (premammillary nucleus, 1.0 mg/kg i.p.): 0
- median number of positive voxels (positive BOLD volume of activation) (prerubral field, 0.1 mg/kg i.p.): 1
- median number of positive voxels (positive BOLD volume of activation) (prerubral field, 0.3 mg/kg i.p.): 0
- median number of positive voxels (positive BOLD volume of activation) (prerubral field, 1.0 mg/kg i.p.): 0
- median number of positive voxels (positive BOLD volume of activation) (primary motor ctx, 0.1 mg/kg i.p.): 119
- median number of positive voxels (positive BOLD volume of activation) (primary somatosensory ctx barrel field, 0.1 mg/kg i.p.): 29
- median number of positive voxels (positive BOLD volume of activation) (primary somatosensory ctx barrel field, 0.3 mg/kg i.p.): 7
- median number of positive voxels (positive BOLD volume of activation) (primary somatosensory ctx barrel field, 1.0 mg/kg i.p.): 0
- median number of positive voxels (positive BOLD volume of activation) (primary somatosensory ctx forelimb, 0.1 mg/kg i.p.): 39
- median number of positive voxels (positive BOLD volume of activation) (primary somatosensory ctx forelimb, 0.3 mg/kg i.p.): 9
- median number of positive voxels (positive BOLD volume of activation) (primary somatosensory ctx forelimb, 1.0 mg/kg i.p.): 3
- median number of positive voxels (positive BOLD volume of activation) (primary somatosensory ctx jaw, 0.1 mg/kg i.p.): 64
- median number of positive voxels (positive BOLD volume of activation) (primary somatosensory ctx jaw, 0.3 mg/kg i.p.): 20
- median number of positive voxels (positive BOLD volume of activation) (primary somatosensory ctx jaw, 1.0 mg/kg i.p.): 6
- median number of positive voxels (positive BOLD volume of activation) (primary somatosensory ctx shoulder, 0.1 mg/kg i.p.): 2
- median number of positive voxels (positive BOLD volume of activation) (primary somatosensory ctx shoulder, 0.3 mg/kg i.p.): 0
- median number of positive voxels (positive BOLD volume of activation) (primary somatosensory ctx shoulder, 1.0 mg/kg i.p.): 0
- median number of positive voxels (positive BOLD volume of activation) (primary somatosensory ctx trunk, 0.1 mg/kg i.p.): 2
- median number of positive voxels (positive BOLD volume of activation) (primary somatosensory ctx upper lip, 0.1 mg/kg i.p.): 39
- median number of positive voxels (positive BOLD volume of activation) (primary somatosensory ctx upper lip, 0.3 mg/kg i.p.): 5
- median number of positive voxels (positive BOLD volume of activation) (primary somatosensory ctx upper lip, 1.0 mg/kg i.p.): 0
- median number of positive voxels (positive BOLD volume of activation) (reuniens nucleus, 0.1 mg/kg i.p.): 14
- median number of positive voxels (positive BOLD volume of activation) (reuniens nucleus, 0.3 mg/kg i.p.): 11
- median number of positive voxels (positive BOLD volume of activation) (reuniens nucleus, 1.0 mg/kg i.p.): 0
- median number of positive voxels (positive BOLD volume of activation) (root of trigeminal nerve, 0.1 mg/kg i.p.): 22
- median number of positive voxels (positive BOLD volume of activation) (root of trigeminal nerve, 0.3 mg/kg i.p.): 29
- median number of positive voxels (positive BOLD volume of activation) (root of trigeminal nerve, 1.0 mg/kg i.p.): 6
- median number of positive voxels (positive BOLD volume of activation) (secondary somatosensory ctx, 0.1 mg/kg i.p.): 16
- median number of positive voxels (positive BOLD volume of activation) (substantia innominata, 0.1 mg/kg i.p.): 0
- median number of positive voxels (positive BOLD volume of activation) (substantia innominata, 0.3 mg/kg i.p.): 0
- median number of positive voxels (positive BOLD volume of activation) (substantia innominata, 1.0 mg/kg i.p.): 0
- median number of positive voxels (positive BOLD volume of activation) (subthalamic nucleus, 0.1 mg/kg i.p.): 0
- median number of positive voxels (positive BOLD volume of activation) (supraoptic nucleus, 0.1 mg/kg i.p.): 0
- median number of positive voxels (positive BOLD volume of activation) (supraoptic nucleus, 0.3 mg/kg i.p.): 2
- median number of positive voxels (positive BOLD volume of activation) (supraoptic nucleus, 1.0 mg/kg i.p.): 0
- median number of positive voxels (positive BOLD volume of activation) (temporal ctx, 0.1 mg/kg i.p.): 5
- median number of positive voxels (positive BOLD volume of activation) (temporal ctx, 0.3 mg/kg i.p.): 1
- median number of positive voxels (positive BOLD volume of activation) (temporal ctx, 1.0 mg/kg i.p.): 0
- median number of positive voxels (positive BOLD volume of activation) (ventral pallidum, 0.1 mg/kg i.p.): 9
- median number of positive voxels (positive BOLD volume of activation) (ventral pallidum, 0.3 mg/kg i.p.): 3
- median number of positive voxels (positive BOLD volume of activation) (ventral pallidum, 1.0 mg/kg i.p.): 0
- median number of positive voxels (positive BOLD volume of activation) (ventromedial thalamic nucleus, 0.1 mg/kg i.p.): 10
- median number of positive voxels (positive BOLD volume of activation) (ventromedial thalamic nucleus, 0.3 mg/kg i.p.): 2
- median number of positive voxels (positive BOLD volume of activation) (ventromedial thalamic nucleus, 1.0 mg/kg i.p.): 0
- median number of positive voxels (positive BOLD volume of activation) (visual 2 ctx, 0.1 mg/kg i.p.): 51
- median number of positive voxels (positive BOLD volume of activation) (visual 2 ctx, 0.3 mg/kg i.p.): 21
- median number of positive voxels (positive BOLD volume of activation) (visual 2 ctx, 1.0 mg/kg i.p.): 0
